Laboratory results: the supplement of paper PMC10849652
The other results are listed elsewhere or left out.

Chains of the proteins cited; added tags and fusions are not shown. Lines headed by an entry give the natural chain unless they say otherwise; changes in a name come on top.
UniProt Q9Y6C9: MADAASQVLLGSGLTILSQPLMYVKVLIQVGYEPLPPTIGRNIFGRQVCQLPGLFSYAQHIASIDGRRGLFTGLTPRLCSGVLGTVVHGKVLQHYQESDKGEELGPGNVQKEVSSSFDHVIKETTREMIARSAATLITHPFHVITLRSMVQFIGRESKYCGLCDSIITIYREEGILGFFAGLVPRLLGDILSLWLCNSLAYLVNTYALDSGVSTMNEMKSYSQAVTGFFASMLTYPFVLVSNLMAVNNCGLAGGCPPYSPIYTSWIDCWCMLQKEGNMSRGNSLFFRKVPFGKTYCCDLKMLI
UniProt Q13496: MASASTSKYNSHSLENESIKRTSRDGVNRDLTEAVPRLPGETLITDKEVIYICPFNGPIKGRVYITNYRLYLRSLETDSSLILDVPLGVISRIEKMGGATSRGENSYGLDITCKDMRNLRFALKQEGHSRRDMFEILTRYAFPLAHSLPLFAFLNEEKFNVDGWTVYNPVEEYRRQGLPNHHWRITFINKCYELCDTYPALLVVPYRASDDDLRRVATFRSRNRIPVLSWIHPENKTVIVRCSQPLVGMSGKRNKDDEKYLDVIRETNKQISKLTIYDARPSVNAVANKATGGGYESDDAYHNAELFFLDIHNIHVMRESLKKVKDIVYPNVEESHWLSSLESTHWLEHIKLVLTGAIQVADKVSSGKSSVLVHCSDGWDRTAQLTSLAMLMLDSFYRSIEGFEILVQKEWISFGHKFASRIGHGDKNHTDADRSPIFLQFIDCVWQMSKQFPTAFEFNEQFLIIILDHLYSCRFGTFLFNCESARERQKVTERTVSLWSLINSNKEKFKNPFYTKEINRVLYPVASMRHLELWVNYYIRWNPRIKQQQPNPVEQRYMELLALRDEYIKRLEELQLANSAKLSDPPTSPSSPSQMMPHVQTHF
UniProt Q9HD23: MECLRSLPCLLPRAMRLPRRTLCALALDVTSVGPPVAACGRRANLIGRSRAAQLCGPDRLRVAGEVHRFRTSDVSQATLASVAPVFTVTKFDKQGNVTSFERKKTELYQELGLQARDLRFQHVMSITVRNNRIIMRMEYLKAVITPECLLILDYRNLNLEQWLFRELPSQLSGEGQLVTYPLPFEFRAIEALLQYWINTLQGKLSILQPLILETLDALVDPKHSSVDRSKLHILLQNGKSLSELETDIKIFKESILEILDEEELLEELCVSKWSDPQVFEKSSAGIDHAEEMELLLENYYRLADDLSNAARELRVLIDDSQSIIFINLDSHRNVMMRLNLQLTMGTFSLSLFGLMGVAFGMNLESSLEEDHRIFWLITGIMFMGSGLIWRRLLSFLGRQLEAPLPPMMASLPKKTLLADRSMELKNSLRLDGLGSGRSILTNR
UniProt Q96DR8: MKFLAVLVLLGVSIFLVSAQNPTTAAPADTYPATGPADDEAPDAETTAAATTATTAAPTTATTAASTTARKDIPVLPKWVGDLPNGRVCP
UniProt Q9C0I1: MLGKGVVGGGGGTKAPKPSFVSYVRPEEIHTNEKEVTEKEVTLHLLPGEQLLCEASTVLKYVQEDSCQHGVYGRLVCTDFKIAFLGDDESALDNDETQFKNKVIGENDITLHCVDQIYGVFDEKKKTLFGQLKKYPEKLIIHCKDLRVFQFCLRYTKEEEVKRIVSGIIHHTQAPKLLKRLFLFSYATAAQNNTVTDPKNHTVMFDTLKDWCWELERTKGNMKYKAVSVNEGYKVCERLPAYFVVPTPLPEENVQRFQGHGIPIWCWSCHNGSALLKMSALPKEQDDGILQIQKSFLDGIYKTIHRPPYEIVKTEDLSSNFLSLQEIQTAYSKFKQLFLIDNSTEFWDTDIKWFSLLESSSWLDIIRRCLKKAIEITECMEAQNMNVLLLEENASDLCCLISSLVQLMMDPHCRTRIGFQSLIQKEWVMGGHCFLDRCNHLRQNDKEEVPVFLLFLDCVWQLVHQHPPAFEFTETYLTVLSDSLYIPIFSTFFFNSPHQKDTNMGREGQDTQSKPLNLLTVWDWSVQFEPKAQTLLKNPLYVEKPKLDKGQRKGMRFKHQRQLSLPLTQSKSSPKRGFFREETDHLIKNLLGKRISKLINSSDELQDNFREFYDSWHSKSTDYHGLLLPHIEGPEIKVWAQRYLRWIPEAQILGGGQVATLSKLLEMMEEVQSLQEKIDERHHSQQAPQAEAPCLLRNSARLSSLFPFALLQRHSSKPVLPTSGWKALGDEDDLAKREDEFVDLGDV
UniProt O43347: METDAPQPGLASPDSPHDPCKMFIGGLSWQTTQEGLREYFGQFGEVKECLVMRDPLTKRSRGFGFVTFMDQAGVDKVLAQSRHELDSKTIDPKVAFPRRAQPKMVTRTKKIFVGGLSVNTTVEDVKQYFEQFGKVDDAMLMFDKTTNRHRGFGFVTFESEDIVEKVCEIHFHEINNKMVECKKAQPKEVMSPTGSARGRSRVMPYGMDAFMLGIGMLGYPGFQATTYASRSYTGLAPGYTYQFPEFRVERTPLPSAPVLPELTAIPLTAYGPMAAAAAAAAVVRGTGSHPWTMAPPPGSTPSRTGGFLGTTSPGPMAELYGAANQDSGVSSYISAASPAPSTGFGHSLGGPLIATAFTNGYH
UniProt Q99417: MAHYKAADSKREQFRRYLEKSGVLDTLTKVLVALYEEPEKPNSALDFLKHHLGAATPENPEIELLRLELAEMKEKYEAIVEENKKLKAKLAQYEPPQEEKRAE
UniProt P12829: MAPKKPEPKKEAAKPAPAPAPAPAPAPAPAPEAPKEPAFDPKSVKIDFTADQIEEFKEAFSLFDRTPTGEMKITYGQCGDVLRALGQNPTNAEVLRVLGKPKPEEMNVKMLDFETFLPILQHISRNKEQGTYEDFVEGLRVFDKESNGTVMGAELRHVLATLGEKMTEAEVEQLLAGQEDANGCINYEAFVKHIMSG
UniProt Q9NVV4: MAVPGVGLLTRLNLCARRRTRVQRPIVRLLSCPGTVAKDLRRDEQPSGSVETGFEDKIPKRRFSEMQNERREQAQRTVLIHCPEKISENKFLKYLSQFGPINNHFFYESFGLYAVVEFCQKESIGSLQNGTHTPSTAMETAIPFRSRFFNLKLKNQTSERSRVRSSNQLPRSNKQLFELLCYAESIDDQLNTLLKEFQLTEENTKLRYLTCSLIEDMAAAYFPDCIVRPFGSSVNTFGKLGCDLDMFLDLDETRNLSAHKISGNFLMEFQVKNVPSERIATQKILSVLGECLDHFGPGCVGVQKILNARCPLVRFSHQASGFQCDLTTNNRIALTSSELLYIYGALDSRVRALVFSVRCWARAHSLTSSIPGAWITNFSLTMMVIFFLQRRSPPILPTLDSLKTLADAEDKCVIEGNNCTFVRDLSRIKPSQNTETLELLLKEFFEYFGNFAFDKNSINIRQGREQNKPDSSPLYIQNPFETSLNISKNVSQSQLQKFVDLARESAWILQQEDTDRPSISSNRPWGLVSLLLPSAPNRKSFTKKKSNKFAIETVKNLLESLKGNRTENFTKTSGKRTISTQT
UniProt P14649: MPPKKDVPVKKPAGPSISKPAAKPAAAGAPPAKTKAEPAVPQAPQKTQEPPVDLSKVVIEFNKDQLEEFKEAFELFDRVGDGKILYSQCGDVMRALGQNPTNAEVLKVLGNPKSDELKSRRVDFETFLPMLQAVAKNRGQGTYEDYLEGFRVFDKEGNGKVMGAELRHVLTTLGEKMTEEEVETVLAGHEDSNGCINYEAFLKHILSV
UniProt Q13614, whole entry, looked up: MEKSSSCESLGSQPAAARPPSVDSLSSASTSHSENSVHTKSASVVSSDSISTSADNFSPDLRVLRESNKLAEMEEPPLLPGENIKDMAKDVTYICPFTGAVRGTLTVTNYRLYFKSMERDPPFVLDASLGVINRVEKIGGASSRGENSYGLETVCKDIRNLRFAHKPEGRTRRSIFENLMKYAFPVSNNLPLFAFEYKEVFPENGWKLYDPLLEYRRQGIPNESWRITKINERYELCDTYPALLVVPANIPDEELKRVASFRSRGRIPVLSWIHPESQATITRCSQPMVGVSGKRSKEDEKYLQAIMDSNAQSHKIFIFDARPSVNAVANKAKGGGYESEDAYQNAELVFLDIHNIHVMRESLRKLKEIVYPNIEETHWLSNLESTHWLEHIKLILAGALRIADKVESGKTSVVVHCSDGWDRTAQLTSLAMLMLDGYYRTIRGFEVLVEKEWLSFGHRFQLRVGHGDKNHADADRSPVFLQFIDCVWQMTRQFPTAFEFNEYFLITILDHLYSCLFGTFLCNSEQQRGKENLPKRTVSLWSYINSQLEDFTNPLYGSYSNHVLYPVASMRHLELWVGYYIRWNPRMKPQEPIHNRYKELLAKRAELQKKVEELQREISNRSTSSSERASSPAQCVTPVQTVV
UniProt O94776: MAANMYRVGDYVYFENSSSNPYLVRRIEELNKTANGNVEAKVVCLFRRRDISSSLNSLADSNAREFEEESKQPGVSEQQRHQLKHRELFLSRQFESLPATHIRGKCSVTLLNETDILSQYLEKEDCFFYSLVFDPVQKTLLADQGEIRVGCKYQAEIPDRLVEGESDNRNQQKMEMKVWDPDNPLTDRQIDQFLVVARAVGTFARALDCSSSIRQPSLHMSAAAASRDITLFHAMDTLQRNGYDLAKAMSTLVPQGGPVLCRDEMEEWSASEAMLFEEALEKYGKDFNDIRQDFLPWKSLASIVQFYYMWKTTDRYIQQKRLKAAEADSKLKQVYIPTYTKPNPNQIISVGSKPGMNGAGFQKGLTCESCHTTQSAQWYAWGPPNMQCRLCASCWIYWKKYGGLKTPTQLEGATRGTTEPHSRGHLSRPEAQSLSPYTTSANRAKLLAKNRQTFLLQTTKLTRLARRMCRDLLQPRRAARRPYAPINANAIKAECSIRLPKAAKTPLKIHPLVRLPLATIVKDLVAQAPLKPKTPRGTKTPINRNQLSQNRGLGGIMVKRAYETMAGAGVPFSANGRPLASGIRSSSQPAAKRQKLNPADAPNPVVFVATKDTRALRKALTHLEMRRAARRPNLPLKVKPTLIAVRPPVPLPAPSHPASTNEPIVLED
UniProt Q68DK7: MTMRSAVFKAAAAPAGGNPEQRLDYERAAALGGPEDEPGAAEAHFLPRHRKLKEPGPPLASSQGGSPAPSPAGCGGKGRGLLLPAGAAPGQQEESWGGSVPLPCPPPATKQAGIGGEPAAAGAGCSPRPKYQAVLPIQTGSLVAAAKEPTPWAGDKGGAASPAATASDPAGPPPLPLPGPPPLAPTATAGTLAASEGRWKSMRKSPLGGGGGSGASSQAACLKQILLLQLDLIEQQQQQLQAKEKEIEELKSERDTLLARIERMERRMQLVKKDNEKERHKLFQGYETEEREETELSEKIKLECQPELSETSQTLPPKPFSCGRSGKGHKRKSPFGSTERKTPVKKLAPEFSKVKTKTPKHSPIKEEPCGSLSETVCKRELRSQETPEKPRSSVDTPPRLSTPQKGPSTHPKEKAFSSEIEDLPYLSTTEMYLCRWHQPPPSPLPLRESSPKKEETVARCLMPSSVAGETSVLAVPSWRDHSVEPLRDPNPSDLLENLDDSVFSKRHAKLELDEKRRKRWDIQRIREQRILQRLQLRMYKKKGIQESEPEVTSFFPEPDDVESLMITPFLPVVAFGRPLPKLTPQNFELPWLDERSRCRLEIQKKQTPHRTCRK

Columns and labels:
Experiment in all cases: log2 fold change, soluble protein after heating vs DMSO (PISA); higher = thermal stabilisation; K562 cells, 10 uM, 30 min; active = over 0.2 and 3.5 SD of the protein, either way, in both replicates (recomputed)
[1] = compound: CC1=C(C=C(C=C1)NC(=O)C2=CC(=CC=C2)C(C)(C)C#N)NC3=CC4=C(C=C3)N=CN(C4=O)C
Procedure, shortened: (§1)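 Quantification of soluble protein used TMTpro 16plex LC-MS/MS, with channel sums equalised. Samples were the supernatant after 21,000xg for 90 min of pooled aliquots from K562 cells (2×10^6 cells/mL) treated with 10 μM compound for 30 min, heated for 3 min over 48°C-58°C, and extracted in PBS with 0.5% NP-40 at 4°C. Values, from duplicates, describe thermal stability against control samples on a log2 fold-change scale.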

[2] = compound: CC1=C(C=C(C=C1)NC(=O)C2=CC(=CC=C2)N(C)C)NC(=O)C3=CC=C(C=C3)O
Procedure, shortened: as §1

[3] = compound: CC1=CC=C(C=C1)SC2=C3C=C(SC3=CN=C2)C(=O)N
Procedure, shortened: as §1

[4] = compound: CC1=NC(=CC=C1)C2=C(N=C(N2)C(C)(C)C)C3=CC4=NC=CN=C4C=C3
Procedure, shortened: as §1

Nexturastat A = compound: CCCCN(Cc1ccc(C(=O)NO)cc1)C(=O)Nc1ccccc1 [Nexturastat A]
Procedure, shortened: as §1

vemurafenib = compound: CCCS(=O)(=O)Nc1ccc(F)c(C(=O)c2c[nH]c3ncc(-c4ccc(Cl)cc4)cc23)c1F [vemurafenib]
Procedure, shortened: as §1

[5] = compound: CCCS(=O)(=O)Nc1ccc(F)c(C(=O)c2c[nH]c3ncc(Cl)cc23)c1F
Procedure, shortened: as §1

[6] = compound: CCCc1cc(C)[nH]c(=O)c1CNC(=O)c1cc(-c2ccnc(N3CCN(C)CC3)c2)cc2c1cnn2C(C)C
Procedure, shortened: as §1

givinostat = compound: CCN(CC)Cc1ccc2cc(COC(=O)Nc3ccc(C(=O)NO)cc3)ccc2c1 [givinostat]
Procedure, shortened: as §1

barasertib = compound: CCN(CCCOc1ccc2c(Nc3cc(CC(=O)Nc4cccc(F)c4)[nH]n3)ncnc2c1)CCOP(=O)(O)O [barasertib]
Procedure, shortened: as §1

[7] = compound: CC[C@@H]1C(=O)N(C)c2cnc(Nc3ccc(C(=O)NC4CCN(C)CC4)cc3OC)nc2N1C1CCCC1
Procedure, shortened: as §1

volasertib = compound: CC[C@@H]1C(=O)N(C)c2cnc(Nc3ccc(C(=O)N[C@H]4CC[C@H](N5CCN(CC6CC6)CC5)CC4)cc3OC)nc2N1C(C)C [volasertib]
Procedure, shortened: as §1

[8] = compound: CC[C@H](C)N1C=C(C2=C(C=C(C=C21)C3=CN=C(C=C3)N4CCNCC4)C(=O)NCC5=C(C=C(NC5=O)C)C)C
Procedure, shortened: as §1

epoxomicin = compound: CC[C@H](C)[C@@H](C(=O)N[C@@H]([C@@H](C)O)C(=O)N[C@@H](CC(C)C)C(=O)[C@]1(CO1)C)NC(=O)[C@H]([C@@H](C)CC)N(C)C(=O)C [epoxomicin]
Procedure, shortened: as §1

[9] = compound: CCn1c(C(=O)N(C2CC2)C2CC2)cc2c3c(ncn3C)c(Nc3cc(C)n(C)n3)nc21
Procedure, shortened: as §1

[10] = compound: CCn1cc(-c2ccnc3[nH]c(-c4cccc(CN(C)C)c4)cc23)c(-c2ccc(NC(=O)N(C)C)cc2)n1
Procedure, shortened: as §1

[11] = compound: CN(C)CC(=O)Nc1ccc2[nH]c(=O)c3ccccc3c2c1
Procedure, shortened: as §1

rosiglitazone = compound: CN(CCOC1=CC=C(C=C1)C[C@H]2C(=O)NC(=O)S2)C3=CC=CC=N3 (racemic) [rosiglitazone]
Procedure, shortened: as §1

[12] = compound: CN1C2=C(C3=C1C(=O)N(N=C3)CC4=CC(=CC=C4)N)SC(=C2)S(=O)C
Procedure, shortened: as §1

[13] = compound: CN1CCC(CNc2ccc3ncc(-c4cccc(OC(F)(F)F)c4)n3n2)CC1
Procedure, shortened: as §1

Measured: log2 fold change

MTCH2 (UniProt Q9Y6C9)
inactive: [1] 0.011 | [2] 0.016 | [3] 0.021 | [4] -0.023 | Nexturastat A -0.133 | vemurafenib -0.066 | [5] -0.006 | [6] -0.087 | givinostat -0.029 | barasertib -0.02 | [7] 0.016 | volasertib 0.048 | [8] -0.077 | epoxomicin -0.031 | [9] 0.026 | [10] -0.034 | [11] -0.004 | rosiglitazone 0.019 | [12] -0.06 | [13] 0.067

MRPL9 (UniProt Q9BYD2)
inactive: [1] 0.104 | [2] -0.118 | [3] -0.055 | [4] -0.014 | Nexturastat A 0.237 | vemurafenib -0.042 | [5] -0.027 | [6] 0.146 | givinostat 0.04 | barasertib -0.065 | [7] 0.039 | volasertib 0.193 | [8] 0.035 | epoxomicin 0.066 | [9] -0.013 | [10] -0.024 | [11] 0.047 | rosiglitazone 0.002 | [12] 0.082 | [13] 0.028

MTM1 (UniProt Q13496)
inactive: [1] -0.023 | [2] 0.016 | [3] 0.035 | [4] -0.009 | Nexturastat A -0.046 | vemurafenib 0.014 | [5] 0.024 | [6] 0.053 | givinostat 0.003 | barasertib 0.006 | [7] 0.085 | volasertib -0.009 | [8] 0.022 | epoxomicin 0.05 | [9] 0.004 | [10] 0.035 | [11] 0.025 | rosiglitazone 0.037 | [12] -0.053 | [13] -0.01

MRS2 (UniProt Q9HD23)
inactive: [1] 0.037 | [2] 0.011 | [3] 0.003 | [4] 0.017 | Nexturastat A -0.02 | vemurafenib -0.016 | [5] 0.051 | [6] -0.046 | givinostat -0.019 | barasertib -0.031 | [7] 0.033 | volasertib 0.024 | [8] 0.03 | epoxomicin 0.003 | [9] 0.003 | [10] 0.07 | [11] -0.01 | rosiglitazone 0.026 | [12] -0.032 | [13] 0.127

MUCL1 (UniProt Q96DR8)
inactive: [1] -0.118 | [2] 0.052 | [3] 0.595 | [4] -0.461 | Nexturastat A 0.047 | vemurafenib -0.208 | [5] 0 | [6] -0.198 | givinostat -0.063 | barasertib 0.099 | [7] 0.026 | volasertib -0.23 | [8] 0.332 | epoxomicin 0.741 | [9] 0.102 | [10] 0.295 | [11] -0.169 | rosiglitazone 1.13 | [12] 0.35 | [13] -0.295

MTMR12 (UniProt Q9C0I1)
inactive: [1] -0.024 | [2] 0.027 | [3] -0.002 | [4] -0.009 | Nexturastat A -0.01 | vemurafenib -0.001 | [5] -0.008 | [6] -0.027 | givinostat -0.005 | barasertib -0.012 | [7] 0.042 | volasertib 0.06 | [8] 0.007 | epoxomicin 0.026 | [9] -0.007 | [10] 0.019 | [11] -0.002 | rosiglitazone -0.012 | [12] -0.016 | [13] 0.009

MSI1 (UniProt O43347)
inactive: [1] 0.061 | [2] 0.002 | [3] -0.034 | [4] 0.049 | Nexturastat A 0.185 | vemurafenib -0.091 | [5] -0.024 | [6] 0.017 | givinostat 0.03 | barasertib -0.092 | [7] 0.164 | volasertib -0.06 | [8] -0.066 | epoxomicin -0.063 | [9] -0.11 | [10] 0.125 | [11] -0.042 | rosiglitazone 0.037 | [12] 0.071 | [13] 0

MTR (UniProt Q99707)
inactive: [1] 0.062 | [2] 0.006 | [3] 0.013 | [4] -0.062 | Nexturastat A 0.158 | vemurafenib 0.033 | [5] 0.004 | [6] 0.071 | givinostat 0.026 | barasertib 0.047 | [7] 0.048 | volasertib -0.147 | [8] 0.023 | epoxomicin -0.026 | [9] -0.05 | [10] -0.06 | [11] 0.049 | rosiglitazone 0.04 | [12] 0.175 | [13] 0.081

MYCBP (UniProt Q99417)
inactive: [1] -0.016 | [2] 0.004 | [3] 0 | [4] -0.007 | Nexturastat A -0.003 | vemurafenib 0 | [5] -0.058 | [6] 0.147 | givinostat 0.012 | barasertib 0 | [7] 0.033 | volasertib 0.094 | [8] -0.065 | epoxomicin 0.004 | [9] 0.008 | [10] -0.038 | [11] -0.019 | rosiglitazone 0.003 | [12] 0.011 | [13] -0.02

MYL4 (UniProt P12829)
inactive: [1] 0.008 | [2] -0.018 | [3] 0.002 | [4] 0.038 | Nexturastat A -0.018 | vemurafenib -0.011 | [5] -0.084 | [6] -0.046 | givinostat 0.002 | barasertib -0.003 | [7] 0.035 | volasertib 0.051 | [8] -0.048 | epoxomicin 0.009 | [9] 0.032 | [10] 0 | [11] -0.039 | rosiglitazone -0.003 | [12] -0.014 | [13] -0.016

MTPAP (UniProt Q9NVV4)
inactive: [1] -0.051 | [2] -0.021 | [3] -0.045 | [4] 0.009 | Nexturastat A 0.245 | vemurafenib -0.016 | [5] 0.065 | [6] 0.244 | givinostat -0.003 | barasertib 0.024 | [7] 0.039 | volasertib -0.2 | [8] 0 | epoxomicin 0.021 | [9] 0.006 | [10] 0.061 | [11] -0.067 | rosiglitazone 0.022 | [12] 0.133 | [13] -0.043

MYL6B (UniProt P14649)
inactive: [1] -0.009 | [2] -0.067 | [3] 0.02 | [4] -0.02 | Nexturastat A -0.009 | vemurafenib -0.022 | [5] -0.01 | [6] -0.001 | givinostat -0.045 | barasertib 0.054 | [7] -0.013 | volasertib -0.053 | [8] -0.032 | epoxomicin 0.015 | [9] 0.024 | [10] -0.021 | [11] -0.001 | rosiglitazone -0.031 | [12] -0.039 | [13] -0.009

MTMR2 (UniProt Q13614)
inactive: [1] 0.013 | [2] 0.009 | [3] -0.024 | [4] 0.031 | Nexturastat A 0.008 | vemurafenib -0.013 | [5] 0.029 | [6] -0.081 | givinostat -0.065 | barasertib -0.007 | [7] 0.042 | volasertib -0.021 | [8] -0.046 | epoxomicin 0.026 | [9] -0.096 | [10] -0.016 | [11] 0.028 | rosiglitazone -0.013 | [12] -0.068 | [13] -0.05

MTA2 (UniProt O94776)
inactive: [1] 0.054 | [2] -0.047 | [3] -0.009 | [4] 0.025 | Nexturastat A -0.039 | vemurafenib 0.013 | [5] 0.043 | [6] 0.175 | givinostat 0.191 | barasertib 0.064 | [7] -0.05 | volasertib -0.251 | [8] 0.095 | epoxomicin 0.015 | [9] -0.042 | [10] 0.041 | [11] 0.05 | rosiglitazone 0.021 | [12] 0.07 | [13] -0.054

MSL1 (UniProt Q68DK7)
inactive: [1] -0.014 | [2] 0.037 | [3] -0.026 | [4] 0.039 | Nexturastat A 0.185 | vemurafenib -0.02 | [5] -0.001 | [6] 0.05 | givinostat 0.197 | barasertib -0.002 | [7] 0.077 | volasertib 0.002 | [8] -0.19 | epoxomicin 0.007 | [10] -0.26 | [11] -0.087 | [12] 0.098 | [13] -0.161

MRPS22 (UniProt P82650)
inactive: [1] 0.041 | [2] -0.029 | [3] 0.022 | [4] -0.018 | Nexturastat A 0.092 | vemurafenib -0.024 | [5] 0.037 | [6] 0.049 | givinostat 0.032 | barasertib -0.055 | [7] 0.007 | volasertib -0.05 | [8] 0.125 | epoxomicin 0.004 | [10] -0.068 | [11] 0.004 | [12] 0.084 | [13] 0.103

Quoted at random: 2 records from the list.
MTA2 (UniProt O94776)
inactive: [1] 0.054 | [2] -0.047 | [3] -0.009 | [4] 0.025 | Nexturastat A -0.039 | vemurafenib 0.013 | [5] 0.043 | [6] 0.175 | givinostat 0.191 | barasertib 0.064 | [7] -0.05 | volasertib -0.251 | [8] 0.095 | epoxomicin 0.015 | [9] -0.042 | [10] 0.041 | [11] 0.05 | rosiglitazone 0.021 | [12] 0.07 | [13] -0.054

MSL1 (UniProt Q68DK7)
inactive: [1] -0.014 | [2] 0.037 | [3] -0.026 | [4] 0.039 | Nexturastat A 0.185 | vemurafenib -0.02 | [5] -0.001 | [6] 0.05 | givinostat 0.197 | barasertib -0.002 | [7] 0.077 | volasertib 0.002 | [8] -0.19 | epoxomicin 0.007 | [10] -0.26 | [11] -0.087 | [12] 0.098 | [13] -0.161
